These are yes or no findings as the source states them, for the method shown. In cells and extracts the contact can be indirect. A yes stands for co-enrichment or nearness to the bait. Other partners may have been found.
Target: SmD2 (human (endogenous in HCCLM3)) (UniProt P62316)
Test: affinity purification with mass spectrometry; immunoprecipitation of SmD2 from HCCLM3 cells; eluted by glycine (0.1 M, pH 2.0), neutralised by HEPES, LC-MS/MS

Chains of the proteins cited; added tags and fusions are not shown.
UniProt P62316: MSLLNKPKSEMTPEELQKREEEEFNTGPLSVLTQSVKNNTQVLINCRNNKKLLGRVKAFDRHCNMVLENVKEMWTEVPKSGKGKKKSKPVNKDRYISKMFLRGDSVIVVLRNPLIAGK
UniProt Q09472: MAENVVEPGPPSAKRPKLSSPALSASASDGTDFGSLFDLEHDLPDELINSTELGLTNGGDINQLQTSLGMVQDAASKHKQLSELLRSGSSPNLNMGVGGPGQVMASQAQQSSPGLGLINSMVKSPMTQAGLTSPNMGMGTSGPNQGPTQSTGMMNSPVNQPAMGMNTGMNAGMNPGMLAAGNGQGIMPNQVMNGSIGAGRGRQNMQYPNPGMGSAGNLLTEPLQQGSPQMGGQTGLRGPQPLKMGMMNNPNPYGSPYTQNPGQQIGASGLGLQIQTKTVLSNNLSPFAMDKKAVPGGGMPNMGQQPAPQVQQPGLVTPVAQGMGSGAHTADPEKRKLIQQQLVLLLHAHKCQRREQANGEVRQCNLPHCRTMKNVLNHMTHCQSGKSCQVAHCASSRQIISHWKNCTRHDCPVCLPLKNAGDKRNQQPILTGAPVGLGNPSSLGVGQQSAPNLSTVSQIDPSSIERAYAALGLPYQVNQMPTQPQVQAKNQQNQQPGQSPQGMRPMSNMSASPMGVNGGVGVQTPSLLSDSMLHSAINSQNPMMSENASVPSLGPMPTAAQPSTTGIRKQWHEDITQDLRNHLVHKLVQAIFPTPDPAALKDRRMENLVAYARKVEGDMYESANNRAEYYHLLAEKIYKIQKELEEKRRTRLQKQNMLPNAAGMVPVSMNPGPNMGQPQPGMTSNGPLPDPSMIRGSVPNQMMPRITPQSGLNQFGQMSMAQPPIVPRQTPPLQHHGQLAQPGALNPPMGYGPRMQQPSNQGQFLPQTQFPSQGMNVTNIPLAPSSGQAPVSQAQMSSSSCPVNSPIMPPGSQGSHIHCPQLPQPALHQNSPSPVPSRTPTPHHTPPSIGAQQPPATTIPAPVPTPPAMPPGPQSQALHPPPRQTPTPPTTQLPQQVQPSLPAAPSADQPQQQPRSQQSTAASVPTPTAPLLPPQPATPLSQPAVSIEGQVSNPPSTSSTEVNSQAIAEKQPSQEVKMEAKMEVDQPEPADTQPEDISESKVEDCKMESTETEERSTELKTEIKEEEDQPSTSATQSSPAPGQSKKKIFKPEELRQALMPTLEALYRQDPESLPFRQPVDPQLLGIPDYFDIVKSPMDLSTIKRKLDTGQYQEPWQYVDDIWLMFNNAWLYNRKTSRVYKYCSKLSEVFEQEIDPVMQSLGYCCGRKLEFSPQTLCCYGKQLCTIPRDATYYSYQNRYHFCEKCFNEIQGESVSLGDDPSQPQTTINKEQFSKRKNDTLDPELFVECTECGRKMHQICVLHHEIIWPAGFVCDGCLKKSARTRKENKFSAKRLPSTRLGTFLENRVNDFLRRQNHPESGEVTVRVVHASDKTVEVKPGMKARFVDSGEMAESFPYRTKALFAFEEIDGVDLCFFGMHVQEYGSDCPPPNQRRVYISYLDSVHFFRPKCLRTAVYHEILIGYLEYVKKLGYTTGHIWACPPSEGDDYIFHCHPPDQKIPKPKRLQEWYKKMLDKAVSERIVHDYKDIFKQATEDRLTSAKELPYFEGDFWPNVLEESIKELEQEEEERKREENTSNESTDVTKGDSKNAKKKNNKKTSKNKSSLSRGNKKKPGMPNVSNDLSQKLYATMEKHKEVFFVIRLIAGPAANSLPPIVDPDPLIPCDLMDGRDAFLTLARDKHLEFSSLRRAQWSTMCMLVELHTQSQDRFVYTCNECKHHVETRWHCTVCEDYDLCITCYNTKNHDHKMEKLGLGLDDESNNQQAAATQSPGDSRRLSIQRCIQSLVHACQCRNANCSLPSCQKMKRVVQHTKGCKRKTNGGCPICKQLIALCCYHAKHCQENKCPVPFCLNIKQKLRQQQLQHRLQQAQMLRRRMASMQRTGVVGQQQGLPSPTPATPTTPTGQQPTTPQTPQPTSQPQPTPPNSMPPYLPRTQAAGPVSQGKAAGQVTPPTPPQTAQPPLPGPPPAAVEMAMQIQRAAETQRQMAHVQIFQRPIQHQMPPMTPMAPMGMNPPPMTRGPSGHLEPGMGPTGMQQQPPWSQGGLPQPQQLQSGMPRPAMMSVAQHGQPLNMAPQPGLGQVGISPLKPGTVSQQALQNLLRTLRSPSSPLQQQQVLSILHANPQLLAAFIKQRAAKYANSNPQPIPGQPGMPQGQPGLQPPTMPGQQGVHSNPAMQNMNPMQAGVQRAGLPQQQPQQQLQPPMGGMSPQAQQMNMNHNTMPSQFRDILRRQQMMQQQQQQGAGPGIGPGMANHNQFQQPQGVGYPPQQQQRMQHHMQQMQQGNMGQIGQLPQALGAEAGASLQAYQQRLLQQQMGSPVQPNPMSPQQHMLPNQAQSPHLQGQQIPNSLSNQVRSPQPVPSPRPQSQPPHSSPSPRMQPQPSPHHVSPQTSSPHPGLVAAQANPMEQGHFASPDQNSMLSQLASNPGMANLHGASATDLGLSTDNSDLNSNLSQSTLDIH

## acetyltransferase p300 (from UniProt Q09472 1-2414) (enzyme)
  binding: binds

Reference: PMC11189467
